Test results: publication PMC11304257
No constants are given. Whether binding was seen depends on the method and setting. In cells and extracts the contact can be indirect. Some binding calls cover weakened binding; strength is not graded here. Where a sequence is shown, tags or fusion partners need not be part of it.

The chains behind the UniProt entries cited, without tags or fusion partners.
UniProt P13010: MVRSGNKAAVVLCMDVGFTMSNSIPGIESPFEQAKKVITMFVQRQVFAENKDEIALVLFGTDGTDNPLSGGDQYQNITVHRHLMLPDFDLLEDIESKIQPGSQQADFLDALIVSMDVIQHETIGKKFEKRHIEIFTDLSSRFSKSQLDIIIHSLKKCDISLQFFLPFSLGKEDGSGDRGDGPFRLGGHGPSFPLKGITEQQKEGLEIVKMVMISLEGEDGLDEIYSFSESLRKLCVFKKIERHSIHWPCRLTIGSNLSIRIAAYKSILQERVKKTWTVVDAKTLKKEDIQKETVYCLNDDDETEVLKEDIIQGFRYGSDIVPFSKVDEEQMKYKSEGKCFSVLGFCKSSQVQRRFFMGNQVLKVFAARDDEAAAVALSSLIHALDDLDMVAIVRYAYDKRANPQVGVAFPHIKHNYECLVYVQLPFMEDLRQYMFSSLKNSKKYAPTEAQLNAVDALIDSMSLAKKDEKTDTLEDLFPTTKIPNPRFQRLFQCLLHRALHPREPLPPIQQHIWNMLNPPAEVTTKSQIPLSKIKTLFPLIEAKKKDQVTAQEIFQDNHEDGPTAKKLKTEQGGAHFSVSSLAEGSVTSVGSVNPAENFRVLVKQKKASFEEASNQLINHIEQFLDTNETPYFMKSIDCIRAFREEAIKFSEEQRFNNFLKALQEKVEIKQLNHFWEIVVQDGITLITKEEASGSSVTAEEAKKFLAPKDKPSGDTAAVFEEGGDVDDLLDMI
UniProt P12956: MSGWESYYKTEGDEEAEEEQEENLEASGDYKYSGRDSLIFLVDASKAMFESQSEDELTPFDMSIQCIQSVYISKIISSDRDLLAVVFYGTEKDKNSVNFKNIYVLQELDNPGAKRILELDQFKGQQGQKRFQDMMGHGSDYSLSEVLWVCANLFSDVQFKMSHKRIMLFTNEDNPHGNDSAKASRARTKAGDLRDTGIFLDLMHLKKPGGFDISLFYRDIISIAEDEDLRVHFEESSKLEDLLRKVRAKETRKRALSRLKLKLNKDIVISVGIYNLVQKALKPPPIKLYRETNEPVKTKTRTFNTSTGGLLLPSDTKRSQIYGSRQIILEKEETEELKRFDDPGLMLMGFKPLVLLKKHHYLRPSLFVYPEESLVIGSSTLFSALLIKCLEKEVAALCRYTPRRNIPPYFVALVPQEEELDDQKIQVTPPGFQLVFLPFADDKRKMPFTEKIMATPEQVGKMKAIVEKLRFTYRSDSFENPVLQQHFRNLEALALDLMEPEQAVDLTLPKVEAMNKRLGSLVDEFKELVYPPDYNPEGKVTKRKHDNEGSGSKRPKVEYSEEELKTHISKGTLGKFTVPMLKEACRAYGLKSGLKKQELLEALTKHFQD
UniProt Q9H814: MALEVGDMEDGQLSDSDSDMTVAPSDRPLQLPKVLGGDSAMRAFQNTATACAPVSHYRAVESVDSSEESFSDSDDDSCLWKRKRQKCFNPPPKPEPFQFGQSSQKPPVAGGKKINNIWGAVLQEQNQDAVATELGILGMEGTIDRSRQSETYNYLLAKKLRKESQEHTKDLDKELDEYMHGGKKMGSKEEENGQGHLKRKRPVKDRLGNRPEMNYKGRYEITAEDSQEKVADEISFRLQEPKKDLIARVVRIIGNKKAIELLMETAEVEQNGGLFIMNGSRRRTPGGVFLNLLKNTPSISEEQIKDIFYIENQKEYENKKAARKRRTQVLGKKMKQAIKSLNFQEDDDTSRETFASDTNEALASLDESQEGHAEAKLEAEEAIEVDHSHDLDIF

Columns and labels:
[1] = biological target: T1, Flag-TRIM24 wild type (tripartite motif containing 24) (human) (UniProt O15164); assay: co-IP; HEK293T cells with HRas^V12 (Figure S7A,B); lysate
T1 sequence: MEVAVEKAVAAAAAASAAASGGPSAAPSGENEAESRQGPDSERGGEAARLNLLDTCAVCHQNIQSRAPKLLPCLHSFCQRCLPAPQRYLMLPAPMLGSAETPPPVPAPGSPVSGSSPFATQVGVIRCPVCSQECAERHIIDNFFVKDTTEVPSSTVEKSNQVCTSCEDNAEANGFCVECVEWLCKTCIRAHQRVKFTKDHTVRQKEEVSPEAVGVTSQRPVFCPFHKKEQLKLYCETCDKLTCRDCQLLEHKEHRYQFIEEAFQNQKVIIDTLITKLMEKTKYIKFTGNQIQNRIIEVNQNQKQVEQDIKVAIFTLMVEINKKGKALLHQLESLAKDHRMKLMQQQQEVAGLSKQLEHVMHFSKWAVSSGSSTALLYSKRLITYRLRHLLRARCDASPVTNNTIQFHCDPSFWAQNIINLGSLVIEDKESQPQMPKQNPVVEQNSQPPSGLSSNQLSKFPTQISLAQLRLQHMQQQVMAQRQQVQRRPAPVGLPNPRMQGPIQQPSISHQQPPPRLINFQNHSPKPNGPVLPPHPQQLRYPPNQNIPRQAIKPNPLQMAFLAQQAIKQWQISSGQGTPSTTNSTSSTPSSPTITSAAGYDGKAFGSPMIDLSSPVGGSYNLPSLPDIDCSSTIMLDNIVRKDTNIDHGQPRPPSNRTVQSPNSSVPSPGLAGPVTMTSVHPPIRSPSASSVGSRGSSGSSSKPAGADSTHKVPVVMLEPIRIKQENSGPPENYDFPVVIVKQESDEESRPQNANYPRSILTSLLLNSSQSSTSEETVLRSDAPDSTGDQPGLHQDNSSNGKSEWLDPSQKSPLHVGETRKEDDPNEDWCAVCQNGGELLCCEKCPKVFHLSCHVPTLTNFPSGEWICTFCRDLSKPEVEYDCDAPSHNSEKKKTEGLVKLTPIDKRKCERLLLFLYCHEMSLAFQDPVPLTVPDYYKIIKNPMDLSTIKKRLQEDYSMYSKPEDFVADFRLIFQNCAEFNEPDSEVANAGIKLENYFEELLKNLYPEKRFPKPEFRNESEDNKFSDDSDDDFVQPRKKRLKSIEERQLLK

[2] = biological target: T1, Flag-TRIM24 wild type (tripartite motif containing 24) (human); assay: condition: only in NHA cells lacking the HRas^V12 mutation; co-IP; NHA cells without HRas^V12, co-transfected with TRIM24, Ku70 and Ku80 constructs; lysate, Western blot
[3] = biological target: T1, Flag-TRIM24 wild type (tripartite motif containing 24) (human); assay: co-IP; NHA cells with HRas^V12, co-transfected with TRIM24, Ku70 and Ku80 constructs; lysate, Western blot
[4] = biological target: T1, Flag-TRIM24 wild type (tripartite motif containing 24) (human); assay: co-IP; HEK293T cells without HRas^V12 (Figure S7A,B); lysate
[5] = biological target: T1, Flag-TRIM24 wild type (tripartite motif containing 24) (human); assay: co-IP; lysates of NHA/HRas^V12 cells expressing TRIM24 WT, deletion or point mutants; IP lysis buffer (20 mM Tris-HCl pH 7.5, 150 mM NaCl, 1 mM EDTA, 1% Triton X-100), 4 °C, four washes, Western blot; endogenous DNA-PK complex; some panels after NU7441 (4 µM, 24 h), Dabrafenib (40 µM, 24 h), U3 snoRNA knock-down or PHAX knock-down
[6] = biological target: T1, Flag-TRIM24 wild type (tripartite motif containing 24) (human); assay: co-IP; NHA/HRas^V12 cells co-transfected with TRIM24 and PHAX constructs; lysate, Western blot
[7] = biological target: T1, Flag-TRIM24 wild type (tripartite motif containing 24) (human); assay: co-IP; NHA/TRIM24 cells with or without HRas^V12 overexpression; lysate, Western blot

Substance | binding [1] | binding [2] | binding [3] | binding [5] | binding [4] | also measured
Ku80 construct (pEGFP-C1-Flag-Ku80) (from UniProt P13010 1-732) | binds | no binding | binds | – | no binding (condition: in HEK293T cells without HRas^V12) | –
Ku70 (endogenous) (from UniProt P12956 1-609) | – | – | – | binds | – | –
Phosphorylated adaptor for RNA export (PHAX) (from UniProt Q9H814 1-394) | – | – | – | – | – | binding [6]: binds; binding [7]: binds
Ku80 (endogenous) (from UniProt P13010 1-732) | – | – | – | binds | – | –
Ku70 construct (pEGFP-C1-Flag-Ku70) (from UniProt P12956 1-609) | binds | no binding | binds | – | no binding (condition: in HEK293T cells without HRas^V12) | –
